Test results published in patent US4576951A, “Proglumide, pharmaceutical preparations and compositions including it for use in human pain relief” (priority 1983, dated 1986).

What was measured:
[1] = type: in vivo, rats; details: morphine 3 or dextropropoxyphene 6 mg/kg alone
Experimental: The method is that described by Harris et al. (J. Pharmcol. Exp. Ther. 143 (1964) 141-148).
Male rats are used which have a weight of about 150-200 g and which have not been fasting. A point is chosen on the tail and this is irradiated by a heat source (75° C.) and the time (in seconds) for which the animal remains without moving its tail is measured.
A maximum period of time under the heat source of 8 seconds is chosen after which the animal is, in any case, removed in order to avoid tissue damage. The measurement is effected before (controls) and after treatment with the drugs. […] The percentage variation is calculated for each individual animal by the following formula: [formula] (time measurements are in seconds)
The measurements are carried out 10, 20, 30, 45, 60 and 90 minutes after treatment with the analgesics.

in vivo = details: mouse, sc
Experimental: The drug (or drugs) under examination was administered sub-cutaneously. The animals were kept under observation for 15 days after the administration.
Ten animals were used for each dose.

CN1CC[C@]23c4c5ccc(O)c4O[C@H]2[C@@H](O)C=C[C@H]3[C@H]1C5 [Morphine]
X, potency ratio with respect to morphine = 1 [1]: 1
LD50 at 360 h (in vivo): 458 mg/kg
